Experimental data taken from patent publication US7747390B2, “Digital cell” (National Institute of Advanced Industrial Science and …, priority 2003, dated 2010).
For at least one compound, name, drawing or mass did not settle the structure.

System: tetracycline-dependent promoter (pTet-Off, pTet-On)
Assay: Real time measurement of gene expression with tetracycline-dependent promoter on array
Assay type: cell-based
Details: pTet-Off and pTet-On printed on array substrates; FIG. 30

CN(C)[C@@H]1C(O)=C(C(N)=O)C(=O)[C@@]2(O)C(O)=C3C(=O)c4c(O)cccc4[C@@](C)(O)[C@H]3C[C@@H]12 [tetracycline]
regulation of gene expression: a change in gene expression was detected only for the tetracycline-dependent promoter
